Experimental data published in PMC7819943, “Rice protein-binding microarrays: a tool to detect cis-acting elements near promoter regions in rice”.
This is one part of the list.

The chains behind the UniProt entries cited, without tags or fusion partners.
UniProt Q0JBA9, entry or part of it: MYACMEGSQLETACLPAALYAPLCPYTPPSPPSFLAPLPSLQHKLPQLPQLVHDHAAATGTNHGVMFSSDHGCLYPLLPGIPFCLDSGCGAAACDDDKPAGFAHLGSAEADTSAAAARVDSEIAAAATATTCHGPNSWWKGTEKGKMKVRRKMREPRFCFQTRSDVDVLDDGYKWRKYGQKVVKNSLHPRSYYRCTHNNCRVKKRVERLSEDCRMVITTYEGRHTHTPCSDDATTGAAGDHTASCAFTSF

These sequences were tested against OsWRKY34 (Oryza sativa, UniProt Q0JBA9 1-250) (assay: protein-binding microarray (RPBM); PBS, 2% BSA, 51.3 ng/ul salmon testes DNA, 50 uM zinc acetate, 200 nM TF, 25 C, 1 h; high values mean tight binding). Settings: protein: recombinant; tags: N-terminal polyhistidine and DsRed monomer fusion (pET32a); label: CyDye5-dUTP incorporated in the synthesized complementary strand; 3' TTTTT single-stranded linker to array surface; dsDNA, one strand shown.
Method in brief: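 For the binding signal, per-feature fluorescence intensity was read in arbitrary units on an Axon 4000B scanner. Before scanning, a 2% BSA-blocked custom Agilent array made double-stranded with Cy5-dUTP was washed after 1 h at 25 °C with 200 nM protein and 50 µM zinc acetate. The proteins were Ni–NTA-purified transcription factors with N-terminal polyhistidine and DsRed fusions, expressed in E. coli BL21-CodonPlus.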

Sequence | binding signal
CACGAAGCCAGTCTAACCGCCATGTGTGGGCTTGTTTGACCGGAGTCACCTAGTGCAG | 8700 fluorescence intensity (a.u.)
TCGTTCTTGGCTGGGTTTGGTTTGGTTTGGTTTGGTCTCGCGGAGTCACCTAGTGCAG | 45500 fluorescence intensity (a.u.)
TTTTTTGAGCCGTATTTTTGCTCTCTTGTTACGTTTTTTTCGGAGTCACCTAGTGCAG | 17100 fluorescence intensity (a.u.)
CTCCTTGCTTGTCATCGCCATTGCCATCGTCATCACAGCACGGAGTCACCTAGTGCAG | 13000 fluorescence intensity (a.u.)
TAATGCCAAACACAGCCTAAATCTTCGAGGGTTCTAAAGTCGGAGTCACCTAGTGCAG | 8170 fluorescence intensity (a.u.)
CGGGGCTGTTGGGGCGGATCCATGTCCGGATCTTCGGCGACGGAGTCACCTAGTGCAG | 12100 fluorescence intensity (a.u.)
ACCACCTTGCGGCATCTCTCTGGGGAACCTCCTCAAATTGCGGAGTCACCTAGTGCAG | 8200 fluorescence intensity (a.u.)
ACTTATTACTATGCCTGATGCTTGGTCTCTACAAACTATTCGGAGTCACCTAGTGCAG | 13100 fluorescence intensity (a.u.)
AAAGAGAGCGCACACGCGGTTGATTTGTTTGACCGACGCGCGGAGTCACCTAGTGCAG | 8360 fluorescence intensity (a.u.)
TGTCTGGTGTTTGTATGGTCATGGCGGGTTGCAGCAGCTCCGGAGTCACCTAGTGCAG | 8940 fluorescence intensity (a.u.)
TTTCTCATATGTTTGACCATTCGTCTTATTAAAAAAATTTCGGAGTCACCTAGTGCAG | 8930 fluorescence intensity (a.u.)
TGTTCTCCGTGTTGCTTATTTATGTTAGTCAATTACTCTTCGGAGTCACCTAGTGCAG | 10200 fluorescence intensity (a.u.)
TCACACCAAGGAAACCATCTCCACTGGCGACTCCATCGAGCGGAGTCACCTAGTGCAG | 8220 fluorescence intensity (a.u.)
ACCACGGCAATTTTTTCTCTCCCACGGCCGCCACGCCACTCGGAGTCACCTAGTGCAG | 10600 fluorescence intensity (a.u.)
AAAATTTTTCAGAGTCTGGGTCAAACTTGTTATTCAGTTACGGAGTCACCTAGTGCAG | 8600 fluorescence intensity (a.u.)
TTGATTTGGATGGTGGTGGTTGGATTCAAATGGGCTGATACGGAGTCACCTAGTGCAG | 8690 fluorescence intensity (a.u.)
AAGTGTGTTGGTTGGTGGCATTGTGCTGCGCATGGAGGTTCGGAGTCACCTAGTGCAG | 9580 fluorescence intensity (a.u.)
TTTCTATGGAAGTTTAACTTTGTGCTTAGGTCAGCTTTGTCGGAGTCACCTAGTGCAG | 8480 fluorescence intensity (a.u.)
GTAGTGACTGCTAGGTATTTTCGGATTACAGATCCTTCCACGGAGTCACCTAGTGCAG | 8290 fluorescence intensity (a.u.)
CATTGTGCGCTCTGGAGAGGCTCCAAACCACCATTGTTCGCGGAGTCACCTAGTGCAG | 8090 fluorescence intensity (a.u.)
AGTTCCGCATCTAATTCCTAGCTCATTGTGTTGTTCTTATCGGAGTCACCTAGTGCAG | 8240 fluorescence intensity (a.u.)

Some of the entries so far, as a markdown table:

| Sequence | binding signal |
| --- | --- |
| TGTCTGGTGTTTGTATGGTCATGGCGGGTTGCAGCAGCTCCGGAGTCACCTAGTGCAG | 8940 fluorescence intensity (a.u.) |
| TTTCTCATATGTTTGACCATTCGTCTTATTAAAAAAATTTCGGAGTCACCTAGTGCAG | 8930 fluorescence intensity (a.u.) |

Further records:

Sequence | binding signal
TCAATTGTTTGTGCAGTTTGTTTGTTTTTATTTATTTATTCGGAGTCACCTAGTGCAG | 9540 fluorescence intensity (a.u.)
ATTTGTCAGACTTTTCCTACACATCCTACTCATGACACACCGGAGTCACCTAGTGCAG | 9020 fluorescence intensity (a.u.)
CTAGGCTGATACACTCATACACACGAGTCCCAGACTGTCACGGAGTCACCTAGTGCAG | 9320 fluorescence intensity (a.u.)
TGGAGCATCAGTCATCTTGTTCCTCCACTCCAGTCCATTCCGGAGTCACCTAGTGCAG | 8090 fluorescence intensity (a.u.)
CTAATCCTCCTGCTCCATCTCGATCCACATAACGATCCACCGGAGTCACCTAGTGCAG | 8470 fluorescence intensity (a.u.)
AAACGGAGGTAGTATAAGAGATTTTGACTTTTTCTTGTACCGGAGTCACCTAGTGCAG | 9110 fluorescence intensity (a.u.)
GGTAGTACTGAAACTTAATTATGGGGTTTTGGATATATGACGGAGTCACCTAGTGCAG | 10500 fluorescence intensity (a.u.)
TTGTGTTTTTTTTTCTATCTTACTAACCTTCGGATATATACGGAGTCACCTAGTGCAG | 8340 fluorescence intensity (a.u.)
AGCTCACTCTAAACCATGTTCGTACCACTACACTTTGTACCGGAGTCACCTAGTGCAG | 9170 fluorescence intensity (a.u.)
CTGCACTTTTTGTCTATTTTACTTATGACTACAATATTCCCGGAGTCACCTAGTGCAG | 9080 fluorescence intensity (a.u.)
TGTAGACTTCTATTTTTTGTTCATTTGATGGATGATTGCACGGAGTCACCTAGTGCAG | 8170 fluorescence intensity (a.u.)
CGCTCATGGCTAGTTCTCTTCTGTTGTGCAGTCATCCTTCCGGAGTCACCTAGTGCAG | 8620 fluorescence intensity (a.u.)
TTCCTTGTCCGTAGTGTTCTTCCCGAAGTTCTTGATTGATCGGAGTCACCTAGTGCAG | 8400 fluorescence intensity (a.u.)
ACCCCTACAAGTTTAAGAACCGCCCGTACACTTTACTTAACGGAGTCACCTAGTGCAG | 9730 fluorescence intensity (a.u.)
GATTATTTGCTTTACGGTTTTTTAAAAAAATTTCTTCATACGGAGTCACCTAGTGCAG | 9590 fluorescence intensity (a.u.)
CTTTCCTTGCGCTGTTCTTCGCTTCATCCATCCATCAGCTCGGAGTCACCTAGTGCAG | 10800 fluorescence intensity (a.u.)
AGTTCTCTTTGTAGGGAGAATACAGTGGTACATGTTTGACCGGAGTCACCTAGTGCAG | 8170 fluorescence intensity (a.u.)
GTAATCTAAGCTAGCCAGGTCGTCATCTTCTTCCTTCAGCCGGAGTCACCTAGTGCAG | 9250 fluorescence intensity (a.u.)
ACTACCAAGTTTGACCCTGCTACTTTGTAACCGGCGAACACGGAGTCACCTAGTGCAG | 8820 fluorescence intensity (a.u.)
GCTACAATTGTCCCACTCCTCGGAACATTGGCGGTAGGGGCGGAGTCACCTAGTGCAG | 8700 fluorescence intensity (a.u.)
AACCCATTTGCACACAACCCAAATTTCAAACTAAAACTTCCGGAGTCACCTAGTGCAG | 8370 fluorescence intensity (a.u.)
